Experimental data from patent US10023882B1, “Hetero-oligomers of (S)-carbonyl reductases and their applications in catalyzing reduction of polyphenyl ketones” (Jiangnan University, priority 2017, dated 2018).
No constants are given. Whether binding was seen depends on the method and setting. Binding seen in cells or lysates may run through a third protein. Some binding calls cover weakened binding; strength is not graded here. Tags and fused reporters may be left off the sequences shown.

T1: His-SCR2, (S)-carbonyl reductase SCR2 of Candida parapsilosis with N-terminal His-tag, expressed from pET28-His-SCR2 (Candida parapsilosis) (UniProt G8BHG4)
T1 sequence: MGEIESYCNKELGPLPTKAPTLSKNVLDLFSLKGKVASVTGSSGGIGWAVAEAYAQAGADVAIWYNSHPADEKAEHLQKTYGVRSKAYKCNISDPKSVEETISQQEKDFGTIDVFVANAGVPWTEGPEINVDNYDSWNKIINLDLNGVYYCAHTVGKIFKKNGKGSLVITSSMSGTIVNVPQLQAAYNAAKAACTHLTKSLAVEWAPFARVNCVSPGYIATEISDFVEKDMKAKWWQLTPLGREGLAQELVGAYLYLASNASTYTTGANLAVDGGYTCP

T2: His-SCR3, (S)-carbonyl reductase SCR3 of Candida parapsilosis with N-terminal His-tag, expressed from pET28-His-SCR3 (Candida parapsilosis) (UniProt G8BHG5)
T2 sequence: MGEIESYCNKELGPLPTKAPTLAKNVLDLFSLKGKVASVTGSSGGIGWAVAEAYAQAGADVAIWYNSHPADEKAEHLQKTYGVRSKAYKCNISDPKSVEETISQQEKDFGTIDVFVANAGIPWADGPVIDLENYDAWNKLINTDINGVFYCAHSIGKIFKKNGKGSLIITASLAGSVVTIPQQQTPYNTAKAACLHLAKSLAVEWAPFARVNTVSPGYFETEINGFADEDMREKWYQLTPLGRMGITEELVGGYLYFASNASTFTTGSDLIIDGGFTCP


How the values were obtained:
[1] = biological target: T1, His-SCR2, (S)-carbonyl reductase SCR2 of Candida parapsilosis with N-terminal His-tag, expressed from pET28-His-SCR2 (Candida parapsilosis); test: tandem affinity purification: Ni-NTA eluate (His-tag) loaded on Streptrap HP column (Strep-tag), co-purification
[2] = biological target: T1, His-SCR2, (S)-carbonyl reductase SCR2 of Candida parapsilosis with N-terminal His-tag, expressed from pET28-His-SCR2 (Candida parapsilosis); test: pull-down by two affinity tags after co-expression in E. coli
[3] = biological target: T2, His-SCR3, (S)-carbonyl reductase SCR3 of Candida parapsilosis with N-terminal His-tag, expressed from pET28-His-SCR3 (Candida parapsilosis); test: tandem affinity purification: Ni-NTA eluate (His-tag) loaded on Streptrap HP column (Strep-tag), co-purification
[4] = biological target: T2, His-SCR3, (S)-carbonyl reductase SCR3 of Candida parapsilosis with N-terminal His-tag, expressed from pET28-His-SCR3 (Candida parapsilosis); test: pull-down by two affinity tags after co-expression in E. coli

| Binder | binding [1] | binding [2] | binding [3] | binding [4] |
| --- | --- | --- | --- | --- |
| Strep-SCR, (S)-carbonyl reductase SCR of Candida parapsilosis with N-terminal Strep-tag, expressed from pET21-Strep-SCR (protein) MGEIESYCNKELGPLPTKAPTLSKNVLDLFSLKGKVASVTGSSGGIGWAVAEAYAQAGADVAIWYNSHPADEKAEHLQKTYGVHSKAYKCNISDPKSVEETISQQEKDFGTIDVFVANAGVTWTQGPEIDVDNYDSWNKIISVDLNGVYYCSHNIGKIFKKNGKGSLIITSSISGKIVNIPQLQAPYNTAKAACTHLAKSLAIEWAPFARVNTISPGYIDTDITDFASKDMKAKWWQLTPLGREGLTQELVGGYLYLASNASTFTTGSDVVIDGGYTCP | binds | binds |  |  |
| Strep-SCR2, (S)-carbonyl reductase SCR2 of Candida parapsilosis with N-terminal Strep-tag, expressed from pET21-Strep-SCR2 (protein) MGEIESYCNKELGPLPTKAPTLSKNVLDLFSLKGKVASVTGSSGGIGWAVAEAYAQAGADVAIWYNSHPADEKAEHLQKTYGVRSKAYKCNISDPKSVEETISQQEKDFGTIDVFVANAGVPWTEGPEINVDNYDSWNKIINLDLNGVYYCAHTVGKIFKKNGKGSLVITSSMSGTIVNVPQLQAAYNAAKAACTHLTKSLAVEWAPFARVNCVSPGYIATEISDFVEKDMKAKWWQLTPLGREGLAQELVGAYLYLASNASTYTTGANLAVDGGYTCP |  |  | binds | binds |
